From the supplement of paper PMC4604168 (melanoma cell lines)
Some of the results follow. Repeats are few or missing, and single values can be far off.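 Cells were imaged in 1,536-well plates, and nuclei stained with an antibody against cleaved PARP were counted against all DNA-stained nuclei to give the apoptosis fraction. Screening doses were chosen to leave most cells alive, and resting and induced cleaved-PARP levels differ strongly between cell lines.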

Columns and labels:
Assay in all cases: cleaved PARP positive nuclei fraction relative to DMSO control; melanoma cells; higher = more apoptosis
Conditions in all cases: library dose: low library concentration; 72 h
[1] = system: 501Mel
[2] = system: A101D
[3] = system: A2058
[4] = system: A375
[5] = system: C32
[6] = system: CBRC008 (line from a melanoma biopsy)
[7] = system: CBRC014 (line from a melanoma biopsy)
[8] = system: CBRC016 (line from a melanoma biopsy)
[9] = system: CBRC017 (line from a melanoma biopsy)
[10] = system: CBRC034 (line from a melanoma biopsy)
[11] = system: COLO792
[12] = system: COLO800
[13] = system: COLO829
[14] = system: G361
[15] = system: IPC-298
[16] = system: IST-MEL1
[17] = system: LB2518-MEL
[18] = system: LOXIMVI
[19] = system: MEL-HO
[20] = system: CBRC013 (line from a melanoma biopsy)

SMILES	cleaved PARP positive nuclei fraction [1]	cleaved PARP positive nuclei fraction [2]	cleaved PARP positive nuclei fraction [3]	cleaved PARP positive nuclei fraction [4]	cleaved PARP positive nuclei fraction [5]	cleaved PARP positive nuclei fraction [6]	cleaved PARP positive nuclei fraction [7]	cleaved PARP positive nuclei fraction [8]	cleaved PARP positive nuclei fraction [9]	cleaved PARP positive nuclei fraction [10]	cleaved PARP positive nuclei fraction [11]	cleaved PARP positive nuclei fraction [12]	cleaved PARP positive nuclei fraction [13]	cleaved PARP positive nuclei fraction [14]	cleaved PARP positive nuclei fraction [15]	cleaved PARP positive nuclei fraction [16]	cleaved PARP positive nuclei fraction [17]	cleaved PARP positive nuclei fraction [18]	cleaved PARP positive nuclei fraction [19]	cleaved PARP positive nuclei fraction [20]
CO[C@H]1C[C@@H]2CC[C@@H](C)[C@@](O)(O2)C(=O)C(=O)N2CCCC[C@H]2C(=O)O[C@H]([C@H](C)C[C@@H]2CC[C@@H](OCCO)[C@H](OC)C2)CC(=O)[C@H](C)/C=C(\C)[C@@H](O)[C@@H](OC)C(=O)[C@H](C)C[C@H](C)/C=C/C=C/C=C/1C [everolimus] + C=C(c1ccc(C(=O)O)cc1)c1cc2c(cc1C)C(C)(C)CCC2(C)C [Bexarotene] (first compound 0.02 µM, partner dose 2 µM)	729%	39.3%	174%	1500%	85.9%	118%	97.8%	106%	98%	97.5%	235%	78.2%	113%	229%	118%	147%	119%	146%	188%	
CC(C)C[C@H](NC(=O)[C@H](Cc1ccccc1)NC(=O)c1cnccn1)B(O)O [Bortezomib] + Nc1ccn([C@@H]2O[C@H](CO)[C@@H](O)C2(F)F)c(=O)n1 [gemcitabine] (first compound 0.001 µM, partner dose 0.0004 µM)	399%	484%	96.4%	93.3%	81.8%	894%	295%	770%	267%	999%	79.1%	112%	129%	3740%	120%	163%	551%	54.6%	79.1%	
Cc1cc(Nc2cc(N3CCN(C)CC3)nc(/C=C/c3ccccc3)n2)n[nH]1 + Cc1nc(Nc2ncc(C(=O)Nc3c(C)cccc3Cl)s2)cc(N2CCN(CCO)CC2)n1 [dasatanib] (first compound 0.04 µM, partner dose 0.004 µM)	151%	103%	106%	56.1%	83.5%	19.6%	93.8%	71.1%	95.5%	267%	113%	128%	135%	90.9%	178%	144%	114%	152%	65.5%	
C[C@@H](Oc1cc(-c2cnn(C3CCNCC3)c2)cnc1N)c1c(Cl)ccc(F)c1Cl [Crizotinib] + Nc1ncn([C@H]2C[C@H](O)[C@@H](CO)O2)c(=O)n1 [decitabine] (first compound 0.2 µM, partner dose 0.1 µM)	94.3%	47.7%	71.4%	40%	74.8%	207%	96.6%	118%	146%	47.6%	83.6%	113%	86.9%	93.1%	64.3%	49.5%	98.5%	138%	180%	
CNC(=O)c1cc(Oc2ccc(NC(=O)Nc3ccc(Cl)c(C(F)(F)F)c3)cc2)ccn1 [sorafenib] + C[C@]1(c2nc3c(C(N)=O)cccc3[nH]2)CCCN1 [Veliparib] (first compound 0.4 µM, partner dose 1.4 µM)	81.5%	119%	174%	88.4%	183%	26.2%	81.4%	88.4%	111%	103%	68.2%	99.8%	130%	67.9%	60%	99.2%	49.7%	60.6%	230%	
CS(=O)(=O)CCNCc1ccc(-c2ccc3ncnc(Nc4ccc(OCc5cccc(F)c5)c(Cl)c4)c3c2)o1 [lapatinib] + Cc1cc(N2CCOCC2)cc2[nH]c(-c3c(NC[C@@H](O)c4cccc(Cl)c4)cc[nH]c3=O)nc12 [BMS536924] (first compound 0.8 µM, partner dose 0.2 µM)	185%	47.5%	103%	105%	219%	192%	112%	52.7%	86.5%		49.8%	204%	79.1%	276%	49%	51.8%	103%	15.6%	67.1%	167%
C[C@@H](Oc1cc(-c2cnn(C3CCNCC3)c2)cnc1N)c1c(Cl)ccc(F)c1Cl [Crizotinib] + O=C(O)c1ccc2c(c1)nc(Nc1cccc(Cl)c1)c1ccncc12 [CX4945] (first compound 0.2 µM, partner dose 0.4 µM)	73%	105%	92.3%	193%	86.5%	42.1%	103%	168%	117%	335%	102%	94.1%	140%	112%	42.9%	61.3%	125%	72.5%	138%	
CNC(=O)c1cc(Oc2ccc(NC(=O)Nc3ccc(Cl)c(C(F)(F)F)c3)cc2)ccn1 [sorafenib] + CN(C)S(=O)(=O)c1ccc2c(c1)/C(=C/c1cc3c([nH]1)CCCC3)C(=O)N2 [SU6656] (first compound 0.4 µM, partner dose 0.4 µM)	110%	90.2%	28.7%	148%	77.4%	174%	93.7%	29.5%	88.8%		37%	56.4%	205%	52.7%	91.5%	99%	57%	124%	79.9%	72.7%
Nc1ccn([C@@H]2O[C@H](CO)[C@@H](O)C2(F)F)c(=O)n1 [gemcitabine] + OCc1c[nH]c2ccccc12 [Indole-3-carbinol] (first compound 0.0004 µM, partner dose 0.8 µM)	97.7%	52.1%	79.7%	146%	81.8%	35.6%	208%	184%	141%	34.7%	131%	70.3%	95.7%	14%	151%	64.7%	61.7%	152%	177%	
Cn1c(=O)n(-c2ccc(C(C)(C)C#N)cc2)c2c3cc(-c4cnc5ccccc5c4)ccc3ncc21 + C=C(c1ccc(C(=O)O)cc1)c1cc2c(cc1C)C(C)(C)CCC2(C)C [Bexarotene] (first compound 0.004 µM, partner dose 2 µM)	108%	53.1%	41.3%	65.5%	74%	84.4%	90.9%	54.2%	102%	53.9%	112%	36.3%	166%	154%	133%	64.9%	84.9%	154%	156%	
O=C(O)[C@@H]1[O][Sb](=[O])([O][Sb]2(=[O])[O][C@H]([C@H](O)CO)[C@H](O)[C@H](C(=O)O)[O]2)[O][C@H]([C@H](O)CO)[C@@H]1O (stereo partly drawn) [stibogluconate] + Clc1ccc(Nc2nnc(Cc3ccncc3)c3ccccc23)cc1 [vatalanib] (first compound 2 µM, partner dose 2 µM)	76.5%	49.4%	134%	32.9%	148%	100%	90%	298%	109%	65%	78.6%	117%	209%	47.4%	91.8%	127%	133%	165%	54.9%	
CO[C@H]1C[C@@H]2CC[C@@H](C)[C@@](O)(O2)C(=O)C(=O)N2CCCC[C@H]2C(=O)O[C@H]([C@H](C)C[C@@H]2CC[C@@H](OCCO)[C@H](OC)C2)CC(=O)[C@H](C)/C=C(\C)[C@@H](O)[C@@H](OC)C(=O)[C@H](C)C[C@H](C)/C=C/C=C/C=C/1C [everolimus] + Cn1c(Nc2ccc(C(F)(F)F)cc2)nc2cc(Oc3ccnc(-c4ncc(C(F)(F)F)[nH]4)c3)ccc21 [CHIR265] (first compound 0.02 µM, partner dose 0.08 µM)	764%	78.9%	79.1%	1520%	168%	285%	85.6%	41.1%	119%	74%	249%	114%	68%	357%	316%	131%	215%	158%	104%	

For reference, some entries already given.
SMILES	cleaved PARP positive nuclei fraction [1]	cleaved PARP positive nuclei fraction [2]	cleaved PARP positive nuclei fraction [3]	cleaved PARP positive nuclei fraction [4]	cleaved PARP positive nuclei fraction [5]	cleaved PARP positive nuclei fraction [6]	cleaved PARP positive nuclei fraction [7]	cleaved PARP positive nuclei fraction [8]	cleaved PARP positive nuclei fraction [9]	cleaved PARP positive nuclei fraction [10]	cleaved PARP positive nuclei fraction [11]	cleaved PARP positive nuclei fraction [12]	cleaved PARP positive nuclei fraction [13]	cleaved PARP positive nuclei fraction [14]	cleaved PARP positive nuclei fraction [15]	cleaved PARP positive nuclei fraction [16]	cleaved PARP positive nuclei fraction [17]	cleaved PARP positive nuclei fraction [18]	cleaved PARP positive nuclei fraction [19]	cleaved PARP positive nuclei fraction [20]
C[C@@H](Oc1cc(-c2cnn(C3CCNCC3)c2)cnc1N)c1c(Cl)ccc(F)c1Cl [Crizotinib] + O=C(O)c1ccc2c(c1)nc(Nc1cccc(Cl)c1)c1ccncc12 [CX4945] (first compound 0.2 µM, partner dose 0.4 µM)	73%	105%	92.3%	193%	86.5%	42.1%	103%	168%	117%	335%	102%	94.1%	140%	112%	42.9%	61.3%	125%	72.5%	138%	
CNC(=O)c1cc(Oc2ccc(NC(=O)Nc3ccc(Cl)c(C(F)(F)F)c3)cc2)ccn1 [sorafenib] + CN(C)S(=O)(=O)c1ccc2c(c1)/C(=C/c1cc3c([nH]1)CCCC3)C(=O)N2 [SU6656] (first compound 0.4 µM, partner dose 0.4 µM)	110%	90.2%	28.7%	148%	77.4%	174%	93.7%	29.5%	88.8%		37%	56.4%	205%	52.7%	91.5%	99%	57%	124%	79.9%	72.7%
